Measurements: PMC9307851
No constants are given. Whether binding was seen depends on the method and setting. In cells and extracts the contact can be indirect. Some results given as binding are weak or reduced against the parent protein; the word gives no strength.

How the values were obtained:
[1] = target: Flag-tagged full-length DNMT3B (isoform 1), L664P (human) (UniProt Q9UBC3); assay: co-IP; whole cell lysate (50 mM Tris-HCl pH 8.0, 150 mM NaCl, 1% NP-40); primary antibody overnight, protein A/G beads, immunoblotting
[2] = target: Flag-tagged full-length DNMT3B (isoform 1), R670Q (human) (UniProt Q9UBC3); assay: as above

binding [1]: binds
binding [2]: binds
Substance: HDAC2 (from UniProt Q92769 1-488)
